No constants are given. Whether binding was seen depends on the method and setting. In cells and extracts the contact can be indirect. A yes stands for co-enrichment or nearness to the bait. Other partners may have been found.
Biological target: GST-ENO1 (UniProt P06733)
Experiment: affinity purification with mass spectrometry; GST-ENO1 from E. coli lysate supernatant held on GST-resins, washed, incubated with postoperative lymphatic drainage of metastatic OSCC patients at 4 °C overnight; eluted with 20 mM reduced glutathione; LC-MS/MS (n = 4); only the target purified

Sequences of proteins named here, by UniProt entry; tags and fusion partners are left off. A change or cut given only in a name is not applied to a line headed by its entry. Residues count along the entry.
UniProt P06733: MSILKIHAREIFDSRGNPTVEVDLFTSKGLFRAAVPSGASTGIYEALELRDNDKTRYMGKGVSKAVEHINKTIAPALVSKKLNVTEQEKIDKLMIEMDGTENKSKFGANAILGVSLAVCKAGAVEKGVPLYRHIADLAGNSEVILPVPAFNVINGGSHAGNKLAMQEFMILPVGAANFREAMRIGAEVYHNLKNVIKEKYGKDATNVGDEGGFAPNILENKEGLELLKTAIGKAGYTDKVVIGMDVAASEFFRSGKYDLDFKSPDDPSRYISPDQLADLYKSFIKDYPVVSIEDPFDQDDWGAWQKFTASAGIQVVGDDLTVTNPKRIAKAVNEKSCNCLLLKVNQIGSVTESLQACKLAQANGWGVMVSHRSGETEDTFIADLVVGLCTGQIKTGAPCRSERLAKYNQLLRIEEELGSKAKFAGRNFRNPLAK
UniProt P02042: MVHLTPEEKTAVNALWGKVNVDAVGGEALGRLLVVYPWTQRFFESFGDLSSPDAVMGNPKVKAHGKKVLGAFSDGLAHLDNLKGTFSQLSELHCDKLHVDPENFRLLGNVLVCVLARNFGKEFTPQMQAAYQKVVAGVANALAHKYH
UniProt P02656, residues 21-99: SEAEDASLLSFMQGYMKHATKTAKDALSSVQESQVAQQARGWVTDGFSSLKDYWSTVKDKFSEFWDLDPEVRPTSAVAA
UniProt A0A0C4DH38: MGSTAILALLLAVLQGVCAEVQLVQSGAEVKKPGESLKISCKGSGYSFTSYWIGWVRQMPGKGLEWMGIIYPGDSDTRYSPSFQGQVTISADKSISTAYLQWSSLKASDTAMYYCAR
UniProt P00915: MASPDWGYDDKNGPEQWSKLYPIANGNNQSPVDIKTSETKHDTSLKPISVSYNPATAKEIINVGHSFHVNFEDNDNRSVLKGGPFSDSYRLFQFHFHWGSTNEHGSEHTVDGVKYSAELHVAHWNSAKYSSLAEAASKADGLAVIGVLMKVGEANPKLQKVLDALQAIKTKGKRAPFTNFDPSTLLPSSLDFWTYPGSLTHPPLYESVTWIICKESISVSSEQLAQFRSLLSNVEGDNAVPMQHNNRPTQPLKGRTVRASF

Molecule: Hemoglobin subunit delta (from UniProt P02042 1-147)
- binding: binds

Molecule: Apolipoprotein C-III (from UniProt P02656 21-99)
- binding: binds

Molecule: Immunoglobulin heavy variable 5-51 (from UniProt A0A0C4DH38)
- binding: binds

Molecule: Carbonic anhydrase 1 (from UniProt P00915 1-261) (enzyme)
- binding: binds

B1: Lysozyme C (enzyme, UniProt P61626 19-148)
chain: KVFERCELARTLKRLGMDGYRGISLANWMCLAKWESGYNTRATNYNAGDRSTDYGIFQINSRYWCNDGKTPGAVNACHLSCSALLQDNIADAVACAKRVVRDPQGIRAWVAWRNRCQNRDVRQYVQGCGV
- binding: binds
